Values of other authors in patent US20060057185A1, “Composition with effects of decline prevention, improvement or enhancement of normal responses of cognitive abilities of a healthy person” (Suntory Limited, priority 2002, published 2006).
At least one compound was matched to its structure with a doubt left.

System: healthy subjects
[1] = capsules containing 2400 mg DHA, oral, 26 healthy subjects, before vs after, no placebo

## CC/C=C\C/C=C\C/C=C\C/C=C\C/C=C\C/C=C\CCC(=O)O [DHA, docosahexaenoic acid]
900 mg DHA daily, 6 months, 97 healthy geriatric subjects
  change in P300: no change
[1]
  P300 amplitude change: significantly augmented
  P300 latency change: significantly shortened
